The results in this text go back to patent publication US20040097712A1 (Amgen, published 2004).

Amino acid sequences for entries named in this document (tags omitted). Residues count along the entry.
UniProt P14778, residues 18-336: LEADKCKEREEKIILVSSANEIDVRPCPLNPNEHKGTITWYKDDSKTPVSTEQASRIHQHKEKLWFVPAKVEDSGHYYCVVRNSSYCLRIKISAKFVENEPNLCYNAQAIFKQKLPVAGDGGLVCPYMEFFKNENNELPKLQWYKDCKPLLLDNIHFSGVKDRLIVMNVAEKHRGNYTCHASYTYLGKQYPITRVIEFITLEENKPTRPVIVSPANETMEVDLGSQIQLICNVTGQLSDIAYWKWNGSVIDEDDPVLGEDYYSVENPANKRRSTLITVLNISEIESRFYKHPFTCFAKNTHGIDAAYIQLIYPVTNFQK
UniProt P18510, residues 26-177: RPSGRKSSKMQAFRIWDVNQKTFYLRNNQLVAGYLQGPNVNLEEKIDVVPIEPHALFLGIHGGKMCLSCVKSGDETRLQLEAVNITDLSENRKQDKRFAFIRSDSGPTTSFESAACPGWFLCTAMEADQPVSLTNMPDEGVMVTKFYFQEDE

In this assay the target is biotinylated IL-1R1 (recombinant, on streptavidin-coated beads) (UniProt P14778). The assay can be described thus: ECL competition of IL-1R1/IL-1beta/IL-1RAcP complex formation (IL-1beta 1 nM, ruthenium-IL-1RAcP 5 nM, biotinylated IL-1R1 on beads).

Results are given in words; binding and its absence hold for the method and conditions named. Some binding calls cover weakened binding; strength is not graded here.

For the substance “Interleukin-1 receptor antagonist (IL-1ra) (from UniProt P18510 26-177) (ligand)”, the binding result is reported as “binds”.
